Results as given in article PMC10721474 (Plant Communications, 2023).

Protein sequences, listed by entry. Tags and fused reporters are not part of them. Lines headed by an entry give the natural chain unless they say otherwise; changes in a name come on top.
UniProt Q9FFD0: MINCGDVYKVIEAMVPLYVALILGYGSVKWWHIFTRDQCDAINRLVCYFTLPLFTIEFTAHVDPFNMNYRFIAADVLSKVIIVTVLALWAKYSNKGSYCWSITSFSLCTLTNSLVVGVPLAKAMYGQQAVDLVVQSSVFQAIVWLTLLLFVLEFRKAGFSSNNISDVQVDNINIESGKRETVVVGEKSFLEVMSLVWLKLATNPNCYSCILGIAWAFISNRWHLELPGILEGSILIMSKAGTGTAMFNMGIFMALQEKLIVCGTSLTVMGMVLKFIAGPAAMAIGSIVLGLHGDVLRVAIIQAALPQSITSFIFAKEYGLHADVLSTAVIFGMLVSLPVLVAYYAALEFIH
UniProt Q9LFP6: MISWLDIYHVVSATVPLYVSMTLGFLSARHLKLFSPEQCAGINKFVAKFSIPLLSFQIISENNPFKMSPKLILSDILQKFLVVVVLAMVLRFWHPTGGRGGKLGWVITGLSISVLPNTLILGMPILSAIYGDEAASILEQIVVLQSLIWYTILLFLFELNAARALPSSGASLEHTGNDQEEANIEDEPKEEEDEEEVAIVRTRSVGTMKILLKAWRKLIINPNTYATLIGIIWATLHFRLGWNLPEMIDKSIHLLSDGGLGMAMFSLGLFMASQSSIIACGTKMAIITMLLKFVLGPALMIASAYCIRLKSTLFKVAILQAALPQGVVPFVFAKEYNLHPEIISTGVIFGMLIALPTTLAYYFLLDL
UniProt Q9LU77: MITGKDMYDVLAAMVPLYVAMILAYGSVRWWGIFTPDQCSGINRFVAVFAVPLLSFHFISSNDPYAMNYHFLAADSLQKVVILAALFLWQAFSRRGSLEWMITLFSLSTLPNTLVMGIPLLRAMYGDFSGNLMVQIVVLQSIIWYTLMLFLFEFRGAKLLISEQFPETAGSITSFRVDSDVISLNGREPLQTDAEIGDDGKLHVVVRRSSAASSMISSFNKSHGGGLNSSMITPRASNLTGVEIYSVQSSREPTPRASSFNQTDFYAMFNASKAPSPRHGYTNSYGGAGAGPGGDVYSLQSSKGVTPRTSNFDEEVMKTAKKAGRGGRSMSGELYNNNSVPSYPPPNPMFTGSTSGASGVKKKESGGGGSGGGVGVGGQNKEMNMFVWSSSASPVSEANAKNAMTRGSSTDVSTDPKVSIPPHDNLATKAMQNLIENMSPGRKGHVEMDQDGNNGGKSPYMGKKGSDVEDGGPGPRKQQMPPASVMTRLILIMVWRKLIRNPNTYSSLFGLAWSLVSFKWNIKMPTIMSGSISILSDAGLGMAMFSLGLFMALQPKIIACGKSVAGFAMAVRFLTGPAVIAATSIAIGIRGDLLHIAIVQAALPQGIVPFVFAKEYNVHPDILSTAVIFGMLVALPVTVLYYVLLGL
UniProt Q9C6B8: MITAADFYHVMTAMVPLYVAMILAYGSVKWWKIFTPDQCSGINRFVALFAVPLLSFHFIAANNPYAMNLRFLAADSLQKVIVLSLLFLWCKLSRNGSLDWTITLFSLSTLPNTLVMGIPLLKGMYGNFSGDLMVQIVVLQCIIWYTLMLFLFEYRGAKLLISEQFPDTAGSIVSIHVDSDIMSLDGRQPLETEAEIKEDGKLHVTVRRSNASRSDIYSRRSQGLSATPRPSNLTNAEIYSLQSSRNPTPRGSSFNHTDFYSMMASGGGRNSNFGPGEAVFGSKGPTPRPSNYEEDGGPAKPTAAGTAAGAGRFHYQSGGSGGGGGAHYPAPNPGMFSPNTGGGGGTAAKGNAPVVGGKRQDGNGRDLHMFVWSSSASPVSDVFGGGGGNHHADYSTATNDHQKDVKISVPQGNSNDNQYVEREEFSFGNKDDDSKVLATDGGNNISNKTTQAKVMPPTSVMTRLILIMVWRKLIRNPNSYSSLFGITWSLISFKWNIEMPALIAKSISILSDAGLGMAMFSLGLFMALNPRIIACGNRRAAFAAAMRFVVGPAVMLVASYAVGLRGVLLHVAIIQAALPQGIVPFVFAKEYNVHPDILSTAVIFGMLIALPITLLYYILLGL

Assays:
PIN5 = PIN5 (Arabidopsis thaliana, UniProt Q9FFD0)
PIN8 = PIN8 (Arabidopsis thaliana, UniProt Q9LFP6)
PIN2 = PIN2 (Arabidopsis thaliana, UniProt Q9LU77)
PIN1 = PIN1 (Arabidopsis thaliana, UniProt Q9C6B8); assay: biochemical

For `COc1ccc2cc([C@H](C)C(=O)O)ccc2c1` [naproxen, (S)-(+)-6-methoxy-α-methyl-2-naphthaleneacetic acid], the Kd (PIN5) was “SPR assays suggest that naproxen also binds to PIN5 and PIN8 proteins”, the Kd (PIN8) was “SPR assays suggest that naproxen also binds to PIN5 and PIN8 proteins” and the Kd (PIN2) was “naproxen bound to all PINs examined with KD values similar to that of naproxen–PIN1”. The Kd (PIN1) was about 12.4 µM.
